# This is one part of the list. The main result of the screen is listed elsewhere. These columns were measured beside it and carry no call. Compounds called inactive in the main read-out are mostly missing here. Words in brackets tell the shape of the fitted curve; partial curves, single points and poor fits give uncertain potencies.
# Assay: qHTS Assay for Lipid Storage Modulators in Drosophila S3 Cells;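 on cell number change: cells counted by Cell Tracker Red CMTPX staining in the red channel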
# Conditions: BODIPY lipid droplet fluorescence, 18-24 h; for cell number change: measured here: cell count max response, cells fed with added oleic acid
# How it was run: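 Drosophila S3 cells loaded with oleic acid (400 uM, as added) and compounds at several concentrations; lipid droplets imaged by 488-nm laser-scanning cytometry, 500–530 nm intensity and object ratio to cell channel. Percent activity normalized to 20 uM Triacsin C.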
# [1] = measured here: lipid fluorescence (Fed channel) AC50, cells fed with added oleic acid
# [2] = measured here: cell number channel AC50, cells fed with added oleic acid
Structure (SMILES),AC50 [1],cell number change [%],AC50 [2]
COc1cc(C(=O)COC(=O)c2cc([N+](=O)[O-])ccc2N2CCOCC2)ccc1OC(F)F,"0.411 µM [rising, single point]",,
CCOC(=O)N=Nc1c(O)n(C)c2ccccc12,,-3.1,"3.66 µM [rising, single point]"
S=C(Nc1ccc(-c2nc3ccccc3[nH]2)cc1)Nc1cccnc1,"0.326 µM [falling, full curve]",13.9,
COC(=O)N/N=C/c1cn(CCCOc2ccccc2)c2ccccc12,"0.231 µM [rising, full curve]",-0.934,
C=CCC1CCCCC12NC(=O)NC2=O (stereo unspecified),"16.4 µM [falling, partial curve]",7.37,
CCOc1ccc(NC(=O)CN(C)Cc2ccc3c(c2)OCO3)cc1S(=O)(=O)N1CCCC1,,-17.9,"4.11 µM [falling, single point]"
O=C(c1ccccc1Cl)N1CCN(S(=O)(=O)c2cccs2)CC1,,-6.27,
O=C(Nc1ccccc1-c1ccccc1)NC1CC2CCCC(C1)N2CCc1ccccc1 (stereo unspecified),"0.366 µM [falling, partial curve]",-0.626,"0.13 µM [falling, full curve, poor fit]"
CCOC(=O)c1ccc(NC(=O)c2ccc(NS(C)(=O)=O)cc2)cc1,"1.64 µM [rising, partial curve]",,"1.64 µM [rising, partial curve]"
O=C(CCC(=O)Nc1ccc(Br)cc1)N/N=C/c1cc([N+](=O)[O-])ccc1O,,23,
CCOC(=O)N1CCN(CC(O)COCc2ccc(OC)c(OC)c2)CC1 (stereo unspecified),"6.51 µM [rising, partial curve]",3.92,
Cc1cc(OCc2cc(C(=O)N(C)C3CCOCC3)no2)cc(C)c1Cl,,12.7,"1.26 µM [rising, partial curve]"
FC(F)(F)c1cc(-c2ccco2)nc(-n2cnc3ccccc32)n1,,-4.67,
COc1ccc(CCNC(=O)[C@@H]2C[C@H]2c2ccccc2)cc1OC,"29.1 µM [falling, single point]",22.6,"6.51 µM [rising, partial curve, poor fit]"
COCCNC(=O)c1ccc(C)cc1C,"2.31 µM [falling, single point]",3.25,
Cc1c(C(=O)Nc2ccc3c(c2)OCO3)sc2nc(-c3ccccc3)cn12,"0.291 µM [rising, partial curve, poor fit]",15.8,"0.146 µM [rising, full curve, poor fit]"
COC(=O)c1oc2c(c1C)C(=O)CC(C)(C)C2,"29.1 µM [rising, single point]",47.2,"9.2 µM [rising, partial curve]"
O=C(NN=C1CCCCC1)c1ccccc1OCc1ccc(F)cc1,,30.7,"14.6 µM [rising, partial curve]"
COc1cc(S(=O)(=O)N2CCOCC2)ccc1F,"4.11 µM [falling, single point]",-16,
O=C(O)C(Cc1ccccc1)N1C(=O)/C(=C/c2ccccc2)SC1=S (stereo unspecified),"2.06 µM [falling, partial curve]",-38.4,"2.59 µM [falling, full curve]"

# 2 records picked at random from the list so far:
Structure (SMILES),AC50 [1],cell number change [%],AC50 [2]
CCOC(=O)N1CCN(CC(O)COCc2ccc(OC)c(OC)c2)CC1 (stereo unspecified),"6.51 µM [rising, partial curve]",3.92,
COCCNC(=O)c1ccc(C)cc1C,"2.31 µM [falling, single point]",3.25,

# (next part)

Structure (SMILES),AC50 [1],cell number change [%],AC50 [2]
O=C(NCc1ccco1)c1cnn2c1NC(c1ccc(Br)cc1)CC2C(F)(F)F (stereo unspecified),"5.17 µM [rising, partial curve, poor fit]",,
Cc1ccc(C(=O)N(CCN2CCCCC2)CC2CCCN(C3CCCC3)C2)s1 (stereo unspecified),"6.51 µM [falling, single point]",-9.94,
Cc1c(CN(C)C(=O)CSc2nc(-c3ccco3)cc(C(F)(F)F)n2)cnn1C,,-14.5,
O=C(NCCCn1ccnc1)/C(=C/c1ccc(Cl)cc1)NC(=O)c1ccccc1,"3.26 µM [falling, full curve]",-3.81,
CC(=O)Nc1ccc(S(=O)(=O)N2CCN(c3cnn(C)c(=O)c3Cl)CC2)cc1,"6.51 µM [falling, single point]",-2.87,
O=C(NCCCn1ccnc1)c1ccc(F)cc1,"0.058 µM [falling, full curve, poor fit]",-8.77,
CC1(C)Cc2nc(N)c(=O)sc2C1,"23.1 µM [rising, single point]",1.4,
CN(c1ccccc1C(=O)NCC1CCCO1)S(C)(=O)=O (stereo unspecified),"29.1 µM [falling, single point]",-47.5,"3.26 µM [falling, full curve]"
O=C(O)CCSc1nc2ccccc2n1CCOc1ccccc1,"0.731 µM [falling, full curve]",1.35,"0.231 µM [rising, full curve]"
CNc1ccccc(C(=O)/C=C/c2ccccc2OC)c1=O,"9.2 µM [falling, single point]",-2.99,
CC(=O)c1c(C)[nH]c(C(=O)NCc2ccc(C)cc2)c1C,"2.06 µM [rising, partial curve]",23.1,
CC1(C)CC(=O)C2=C(C1)OC(N)=C(C#N)C21C(=O)N(Cc2ccccc2Cl)c2ccccc21 (stereo unspecified),"16.4 µM [rising, single point]",69.8,"2.59 µM [rising, full curve]"
N#C/C(C(N)=O)=C1/CCc2ccccc2N1,"2.91 µM [rising, partial curve]",,"3.66 µM [rising, single point]"
Cc1nc2cc(NC(=O)Nc3ccccc3Cl)ccc2n1C,"18.4 µM [falling, single point]",-13.4,
CCN(CC)CCN1C(=O)C2C(C(=O)Nc3cccc(C)c3)C3C=CC2(O3)C1C(=O)NC1CCCC(C)C1C (stereo unspecified),"0.58 µM [falling, single point]",,
CN(CCCCCCCCCCN(C)C(=O)Oc1cccc([N+](C)(C)C)c1)C(=O)Oc1cccc([N+](C)(C)C)c1,"6.51 µM [rising, partial curve]",-5.41,
CC1=C(C(=O)OC(C)C)C(c2cccc([N+](=O)[O-])c2)n2c(cc(=O)[nH]c2=S)N1 (stereo unspecified),"0.82 µM [rising, full curve, poor fit]",1.13,
CCN(CC)CCNC(=O)c1cn(CC)c2ccc(S(=O)(=O)N3CCc4ccccc4C3)cc2c1=O,"16.4 µM [rising, partial curve]",31.6,"0.411 µM [rising, full curve, poor fit]"
COCCNS(=O)(=O)c1cc(OC)c(Cl)cc1Cl,"0.103 µM [falling, full curve, poor fit]",-1.52,"0.00461 µM [falling, full curve, poor fit]"
CSCCC(NC(=O)c1ccco1)C(=O)NCC1CCCCC1 (stereo unspecified),"0.731 µM [rising, partial curve, poor fit]",5.97,

Structure (SMILES),AC50 [1],cell number change [%],AC50 [2]
CCSc1nnc(NC(=O)C(C)(C)C)s1,,36,"16.4 µM [rising, partial curve, poor fit]"
O=C(NC1CCCCC1)c1ccc(N2CCOCC2)c([N+](=O)[O-])c1,"6.51 µM [falling, single point]",-7.92,
O=Cc1ccc(-c2ccccc2C(=O)O)o1,,28.2,
C/C=C\C=C\C(=O)N1CC2(CC(c3cccc(NC(=O)COc4ccc(Cl)cc4)c3)=NO2)C[C@H]1C(N)=O (stereo partly specified),"5.17 µM [falling, full curve]",-53,"0.92 µM [falling, full curve]"
N#Cc1c(=O)c2nc(NCCCO)ncc2n2c(=O)c3ccccc3[nH]c12,"0.00517 µM [falling, full curve, poor fit]",4.78,"0.366 µM [falling, partial curve, poor fit]"
COc1ccc(NC(=O)COC(=O)/C=C/c2cnc3ccccc3n2)cc1,,-70.5,"0.00517 µM [falling, full curve, poor fit]"
C=CCn1c(=NC(=O)c2cc(-c3cccs3)nc3ccccc23)sc2cc(S(N)(=O)=O)ccc21,"3.26 µM [rising, partial curve]",22,
NC(=O)c1ccc(NC(=O)c2cncn2-c2ccccc2)cc1,"1.78 µM [rising, partial curve]",-13.2,
COc1ccc(N2CCN(c3cc(C)c4cccc(C)c4n3)CC2)cc1,"5.8 µM [falling, full curve]",-50.9,"29.1 µM [falling, single point]"
Cc1ccc(S(=O)(=O)N2CCCC2)cc1C(=O)NCCN1CCOCC1,,15.7,
CC(=O)c1ccc(N(CC(=O)NCC2CCCO2)C(=O)CCC(=O)Nc2cc(C)on2)cc1 (stereo unspecified),,7.08,
COc1ccc(COC(=O)C2CCN(S(=O)(=O)c3ccc(C)cc3)CC2)cc1,,-25,"2.59 µM [rising, partial curve]"
CC(NC(=O)c1ccccc1SCC(=O)N1CCCC1)c1ccc(F)cc1 (stereo unspecified),,22.2,
CCN(CC)CCCNc1nnc(C)c(=O)[nH]1,,19.8,"0.00411 µM [rising, full curve, poor fit]"
O=C(Cn1cc2c(n1)CCCC2)NC1CCN(Cc2ccccc2)CC1,,13.1,
CC(=O)c1ccc(NC(=O)C(C)OC(=O)C2CCN(c3ccc(C(F)(F)F)cn3)CC2)cc1 (stereo unspecified),,54.5,"18.4 µM [rising, single point]"
OCCN1CCN(c2ncnc3c2sc2nc(N4CCOCC4)c4c(c23)CCC4)CC1,"0.82 µM [falling, full curve]",-18.5,
CCC(=O)Nc1nnc(S(=O)(=O)N(C)c2cc(C)cc(C)c2)s1,,-43.3,

# Two of these compounds in another layout:
Structure (SMILES)	AC50 [1]	cell number change [%]	AC50 [2]
NC(=O)c1ccc(NC(=O)c2cncn2-c2ccccc2)cc1	1.78 µM [rising, partial curve]	-13.2	
COc1ccc(N2CCN(c3cc(C)c4cccc(C)c4n3)CC2)cc1	5.8 µM [falling, full curve]	-50.9	29.1 µM [falling, single point]
